Drawing on publication PMC11450232, this text covers binding for one molecule.

Where a chain is given by its changes, count along the chain named. Results are given in words; binding and its absence hold for the method and conditions named. In cells and extracts the contact can be indirect. Some entries that bind do so weakly or less than the wild type. Where a sequence is shown, tags or fusion partners need not be part of it.

Test [1] deals with T1, HA-IRF3(K313/315N) (human) (UniProt Q14653).
T1 sequence: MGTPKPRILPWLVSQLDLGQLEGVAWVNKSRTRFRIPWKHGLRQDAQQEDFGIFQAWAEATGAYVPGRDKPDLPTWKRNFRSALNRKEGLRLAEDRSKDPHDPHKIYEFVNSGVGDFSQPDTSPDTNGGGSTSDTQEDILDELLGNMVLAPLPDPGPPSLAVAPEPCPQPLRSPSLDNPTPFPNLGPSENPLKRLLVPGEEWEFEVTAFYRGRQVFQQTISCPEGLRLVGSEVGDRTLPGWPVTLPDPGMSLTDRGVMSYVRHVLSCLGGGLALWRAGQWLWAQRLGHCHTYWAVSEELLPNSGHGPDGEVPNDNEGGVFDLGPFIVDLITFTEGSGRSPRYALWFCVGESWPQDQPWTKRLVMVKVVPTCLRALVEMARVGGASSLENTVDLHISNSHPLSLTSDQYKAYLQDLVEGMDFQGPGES
Description: co-IP; cells transfected with HA-IRF3 (wild type or mutant), with or without PBLD (1.2 or 2.4 ug), infected with BPIV3 for 24 h; non-denaturing lysis buffer; lysate incubated with HA antibody 12 h at 4 °C, then protein A/G resin 4 h; endogenous Puma and Noxa detected by western blot.

Test [2] concerns the target T2, HA-tagged IRF3 (interferon regulatory factor 3), wild type (human) (UniProt Q14653).
T2 sequence: T1 sequence with N313K, N315K
The test is described as above.

B1: p53 upregulated modulator of apoptosis (Puma) (protein, UniProt Q9BXH1 1-193)
chain: MARARQEGSSPEPVEGLARDGPRPFPLGRLVPSAVSCGLCEPGLAAAPAAPTLLPAAYLCAPTAPPAVTAALGGSRWPGGPRSRPRGPRPDGPQPSLSLAEQHLESPVPSAPGALAGGPTQAAPGVRGEEEQWAREIGAQLRRMADDLNAQYERRRQEEQQRHRPSPWRVLYNLIMGLLPLPRGHRAPEMEPN
As to B1, the binding entry in test [1] and in test [2] was “binds” each time.
